In paper PMC4770243 one finds binding data, which are given here for 7 molecules.

Protein sequences, listed by entry. Tags and fused reporters are not part of them. Lines headed by an entry give the natural chain unless they say otherwise; changes in a name come on top.
UniProt Q97YA4: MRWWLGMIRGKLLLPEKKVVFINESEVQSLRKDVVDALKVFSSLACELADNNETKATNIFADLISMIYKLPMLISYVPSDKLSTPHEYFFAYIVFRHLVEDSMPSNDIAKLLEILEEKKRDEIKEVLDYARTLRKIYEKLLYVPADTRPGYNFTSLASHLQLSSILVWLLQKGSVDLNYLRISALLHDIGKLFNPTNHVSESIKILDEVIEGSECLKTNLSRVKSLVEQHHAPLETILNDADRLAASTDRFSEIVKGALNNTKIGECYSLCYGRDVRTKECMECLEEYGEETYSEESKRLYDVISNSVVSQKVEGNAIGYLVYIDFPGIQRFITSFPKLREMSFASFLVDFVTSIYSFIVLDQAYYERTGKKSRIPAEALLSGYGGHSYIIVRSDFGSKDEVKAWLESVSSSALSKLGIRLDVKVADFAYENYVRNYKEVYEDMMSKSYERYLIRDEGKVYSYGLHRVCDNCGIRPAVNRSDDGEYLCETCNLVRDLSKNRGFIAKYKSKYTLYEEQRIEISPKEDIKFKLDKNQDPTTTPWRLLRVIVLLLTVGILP

The assay concerns the target Sso1428, the large subunit (Csm1/Cas10) of the Sso-IIID complex (Sulfolobus solfataricus) (UniProt Q97YA4). The experiment in a line: SEC; individually purified subunits Sso1424, Sso1425, Sso1426, Sso1427, Sso1428, Sso1430, Sso1431, Sso1432 and a defined crRNA mixed at 3:1:4:1:1:1:1:1:1 in 20 mM MES pH 6.0, 100 mM NaCl, 0.1 mg/ml BSA, 2 mM MgCl2, 45°C for 30 min; reconstituted complex purified by size exclusion chromatography; both purified. In general terms: Size exclusion chromatography separates by hydrodynamic size, large species first.

These are yes or no findings as the source states them, for the method shown. Binding can be weak; no strength is given.

B1: Sso1426, Cas7-like subunit of the Sso-IIID complex (protein, UniProt Q97YA6 1-281)
chain: MVLMVNYTFIDKRVIKRTTMIEGDVETVSPLKIGGGKDNFDPSSLAKDSILKDVEGRPIIPGSSWKGIFRSTGERILRLRNIEVCSGIGKDYCLNNNRKERDFNSALKENVDQALEIFWDYTCLNCKVFGTMSVIGAVRFLDSLPISYSLNTRSMIAISRTEGAVARRALVTVEYVDVGSKFSFKMMGYNLPNYAIGYLITIMKNIHDGFTQVGGHKSRGFGFVKFGKVKFTDLGEKRIGDEDIQVKDVGDLVEGNGDEFFGRMKPFMEAFNNAKIPYPKK
In the case of B1, the binding result is listed as “binds”.

B2: Sso1424, small subunit of the Sso-IIID complex (protein, UniProt Q97YA8 1-139)
chain: MRVKHYIQREFNYSVSSQDLLDIATRIAISAIKPKPKSNKPEPYVDSSTINSLLSFLQSRRNVNELLLYIMRQAGRDEIDEETGKLLLASLKDRELKDAVNLLGYVKWVYDTLTGLKVNYNNVKGVKTFKELVNILSKV
With B2, the binding result is recorded as “binds”.

B3: Sso1427, Cas7-like subunit of the Sso-IIID complex (protein, UniProt Q97YA5 1-275)
chain: MQRSPIRRSNYTPRNEKGLEGVIELQLNVVSDYLHVGSGKYDVEVMRSVSDVKRLVEDYLSGGNKRIPNNVDQYFSMVAFLMVRNKDNVVIPGSTIKGMVRSRLELSVPGSCYIVTGHSTSSSAVYKRIFNPDPNRGSDRFDVNKFPQVCPVCDLLGNMGLASRVSLSDFVMTSGKVDYVNVKGRDYEVVTKGSIFAGKVLYKSLKPVEIGMLLYGFGFVKDCNGSKVMLLGRFKFSDKRFGRVKFSLKTPIADCNKLVSDFVKQFNPRYINEEW
As to B3, the binding entry is “binds”.

B4: Sso1425, Cas7-like subunit of the Sso-IIID complex (protein, UniProt Q97YA7 1-250)
chain: MKMSCMDLDVITTVVKIEGKLRNETLLRVGKGKTQDFAEATDNPIIKYRDRPLIPGSSLKGAFRSLVESYTKSLNDSKYYVCDLDDNSCVSCEEKKKDNGIVEGRYCIPCILFGFKDLASRVYILDAIAEKYSISQRTMVAINRVFGGQMPGHLYTLDYVDPGSEFSFMMMIYNLNLIEGEKDWKAKSVEALKFLLATLVREGIFVGARKSVGYGLIKLVDAKVSLYKAPDHLVSPVIVKKLEEVIGTNG
As to B4, the binding result was “binds”.

B5: Sso1430, subunit of the Sso-IIID complex (protein, UniProt Q97YA2 1-206)
chain: MIPIKVSMRNLSSLTIAGGSTISSIDIPLNPLGVPPSTIKGTMRTAVHNLLPNGYTSCGEVEPESIREAHKNGVCDVCKLFGYPDSLTGCFTIDVSKTDYRTSYITRVSIDDKTQRAKEGSLFTQQIILPNSDISFTVYYNCNDERLFKLLLYSILDLRYWRLGRNTMIDVKVNNVEEICKSVKCDEEINGILNQLSRYLWEAENK
In the case of B5, the binding result is “binds”.

B6: Sso1432, subunit of the Sso-IIID complex (protein, UniProt Q97YA0 1-252)
chain: MVIQVFRLNFRLRTGFRVGGGQEVGDNVIRQLRIGVEGVMIPASSWKGMFRRVSEIVLNSEDHFEEHSKKEVDTRTINALLKSDEKFRRIAISKVGKEVITQNGINVDKLDSESLSDLRRIYNEYNCPIERLYGSNYFAGGITISDSVIPNASIMERTHVTIERKSKKASEKHLFSEEIIDAEKIEVKVIVRNEFELWKNSLKLLREIGYFIGGSKSRGIGYIVLDEKESEYAVINNFSETPKFSELKRYLS
On to B6, for which the binding result is given as “binds”.

B7: Sso1431 (Csm4/Cas5-like), subunit of the Sso-IIID complex (protein, UniProt Q97YA1 1-304)
chain: MILIKLKVKGYITTQMRRIRNYYFSITNYIPSTTLRGAILAEYYNQTGKIDENFYVSPAYPIKTAPAHYFSPAKERKGDEFIEVKRILEKKEKEFEANKPIEEIMKLEIDGKHPKPKIGSLITYEGETDKENKYREFSSKSIIQMHVAIDKTSISSYKGMLFAYEYKEFDEMWAIASDSEVIDTVKRIKIGRGKNRGNKVVDVEKVREVSLDQSKGLLYCLSPCIGSLFGKTFFKAKYIIGDKSIYSGWFTVDSFSGQKPVFETLREGSLVYVESFSNEKSLMPAGLNFMLRISDLSSILNKVS
On to B7, for which the binding result is “binds”.
